Experimental data: the supplement of paper PMC6143611
Where a name gives a salt, the structure may show the parent alone. ± gives the uncertainty stated by the source. The list shows a part of the results. Baselines shift from plate to plate; read single values as rough.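 Larvae carried a heat-shock-induced fluorescent stripe in rod outer segments, set at 6 dpf; the shedding distance runs from this stripe to the outer segment tip, measured in confocal stacks, about three fish per compound. The controls got 0.2% DMSO vehicle, and the paper flagged compounds with at least a 20% change against the same-week control and p < 0.001 (Dunnett test on mixed-effects models).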

How the values were obtained:
[1] = system: Danio rerio larva rod photoreceptor outer segment; assay: rod outer segment growth distance Dg, difference from same-week DMSO control mean; higher = more outer segment growth; settings: 20 µM; treatment time: 4 days (6-10 dpf)
[2] = system: Danio rerio larva rod photoreceptor outer segment; assay: rod outer segment shedding distance Ds, difference from same-week DMSO control mean; higher = less outer segment shedding; settings: 20 µM; treatment time: 4 days (6-10 dpf)

CCN(C)C(=O)Oc1cccc([C@H](C)N(C)C)c1 [Rivastigmine Tartrate]
rod outer segment growth distance Dg [1]: -0.92 ± 0.3 um | rod outer segment shedding distance Ds [2]: -0.18 ± 0.33 um

CN1[C@@H]2CC(O)C[C@H]1[C@@H]1O[C@@H]12 (some centres undefined) [Scopine HCl]
rod outer segment growth distance Dg [1]: -0.39 ± 0.24 um | rod outer segment shedding distance Ds [2]: -0.65 ± 0.15 um

Cn1c(CCCC(=O)O)nc2cc(N(CCCl)CCCl)ccc21 [Bendamustine HCl]
rod outer segment growth distance Dg [1]: 0.38 ± 0.18 um | rod outer segment shedding distance Ds [2]: -0.73 ± 0.2 um

CC(=O)OCC1=C(C(=O)O)N2C(=O)[C@@H](N)[C@H]2SC1 [7-Aminocephalosporanic acid]
rod outer segment growth distance Dg [1]: -0.11 ± 0.21 um | rod outer segment shedding distance Ds [2]: -0.25 ± 0.19 um

CN(C)[C@@H]1C(=O)C(C(N)=O)=C(O)[C@@]2(O)C(=O)C3=C(O)c4c(O)cccc4[C@@](C)(O)[C@H]3C[C@@H]12 [Tetracycline HCl]
rod outer segment growth distance Dg [1]: 0.48 ± 0.29 um | rod outer segment shedding distance Ds [2]: -0.14 ± 0.16 um

Cc1cc(C(=O)CN2CCCC2)c(C)n1-c1ccc(F)cc1
rod outer segment growth distance Dg [1]: -0.77 ± 0.21 um | rod outer segment shedding distance Ds [2]: -0.64 ± 0.24 um

O=C1CCC[C@@H]2[C@H]3CCCN4CCC[C@@H](CN12)[C@@H]34 [(+)-Matrine]
rod outer segment growth distance Dg [1]: -0.7 ± 0.33 um | rod outer segment shedding distance Ds [2]: 0.19 ± 0.32 um

O=P1(NCCCl)OCCCN1CCCl (centres undefined) [Ifosfamide]
rod outer segment growth distance Dg [1]: 0.7 ± 0.18 um | rod outer segment shedding distance Ds [2]: -0.15 ± 0.15 um

CN1[C@@H]2C[C@@H](OC(=O)[C@H](CO)c3ccccc3)C[C@H]1[C@@H]1O[C@@H]12 [Scopolamine HBr]
rod outer segment growth distance Dg [1]: 0.12 ± 0.23 um | rod outer segment shedding distance Ds [2]: -0.31 ± 0.33 um

COc1cc(OC)c(OC)cc1C=O [Asaraldehyde]
rod outer segment growth distance Dg [1]: -0.75 ± 0.2 um | rod outer segment shedding distance Ds [2]: -0.43 ± 0.18 um

Cc1ccccc1-n1c(Cn2ncc3c(N)ncnc32)nc2cccc(C)c2c1=O
rod outer segment growth distance Dg [1]: 0.31 ± 0.28 um | rod outer segment shedding distance Ds [2]: -0.13 ± 0.33 um

O=C(Oc1ccc([N+](=O)[O-])cc1)N1CCC(C(O)(c2ccc3c(c2)OCO3)c2ccc3c(c2)OCO3)CC1
rod outer segment growth distance Dg [1]: 0.63 ± 0.15 um | rod outer segment shedding distance Ds [2]: -0.07 ± 0.12 um
